PubChem BioAssay AID652272 – Drosophila RNAi Screening Center, 2013

Purpose: 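Genome-wide knock-down search for components of Hedgehog signalling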 (primary screen)
Cells: Drosophila clone 8 (Cl8) cells
Reagent: long dsRNA against Drosophila genes
Detection: 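Firefly light from a Hedgehog-responsive ptc promoter reporter and Renilla reference light, both read on a plate reader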
Scale: firefly Hh reporter signal: higher = more ptc reporter light; Renilla reference signal: higher = more Renilla control light
Call rule: 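Called a hit if the two-replicate mean z-score lies below -2 or above +3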
Calls: active = hit: reporter lowered or raised; inactive = not a hit
In all, the deposit lists about 21,000 reagents; this is a random part of those that have a named target and a result. In the full data, 503 (2.4%) were called active. 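Raw plate light values, not normalised; calls rest on replicate z-scores that were not deposited; hits include reporter decreases as well as increases.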 A plus sign joins genes that one reagent is predicted to hit. Not given: the amount of reagent, the time to read-out.

Target gene	amplicon	firefly Hh reporter signal, replicate 1	firefly Hh reporter signal, replicate 2	Renilla reference signal, replicate 1	Renilla reference signal, replicate 2	Call
CG4213	DRSC00641	1.57e5	1.00e5	4048	2173	inactive
sm	DRSC05795	1.54e5	2.74e5	4321	11144	inactive
sm	DRSC07686	89245	47995	4251	2380	inactive
CG12239	DRSC17832	70533	1.00e5	2192	2917	inactive
ric8a	DRSC18093	70754	94295	1249	2211	inactive
CG12914	DRSC06229	85947	55765	1929	5127	inactive
Mkk4	DRSC16739	91056	91344	3984	3013	inactive
CG3358	DRSC04992	1.21e5	1.03e5	4301	3909	inactive
pbl	DRSC11381	76822	37595	3136	1977	inactive
Usp15-31	DRSC04426	1.99e5	1.29e5	6690	4261	inactive
Usp15-31	DRSC04532	54240	33104	1516	2859	inactive
Vps11	DRSC11909	3.25e5		6165		inactive
CG7120	DRSC08921	1.04e5	1.64e5	3133	7883	inactive
CG7120	DRSC10773	51034	56852	5846	4738	inactive
GramD1B	DRSC00426	90562	70218	2508	8330	inactive
GramD1B	DRSC00591	1.05e5	42516	4273	2048	inactive
CG4151	DRSC18351	95104	1.65e5	3237	6119	inactive
superdeath	DRSC14868	5.02e5	61939	2553	2553	inactive
Ent2	DRSC02124	87732	85616	3170	2480	inactive
cv-2	DRSC03861	1.54e5	2.33e5	4209	11104	inactive
cv-2	DRSC04261	69523	1.14e5	1829	7732	inactive
CG15167	DRSC02468	88199	67332	2042	6359	inactive
CG30414	DRSC04372	98665	54634	3047	5176	inactive
Dmtn	DRSC12513	89024	84066	3757	3403	inactive
CG6441	DRSC02957	1.10e5	48002	2841	4829	inactive
Slh	DRSC00407	95928	93493	2650	2240	inactive
Slh	DRSC00789	1.12e5	69136	2306	1474	inactive
CG8206	DRSC20093	95130	54390	2072	1170	inactive
CG4480	DRSC02750	90425	61568	2458	5073	inactive
jp	DRSC02213	1.17e5	1.23e5	4467	5083	inactive
jp	DRSC02744	1.04e5	47269	3349	4869	inactive
CG4116	DRSC18348	1.00e5	2.11e5	4117	8280	inactive
Su(z)3 (retired record)	DRSC07558	20496	22357	612	1948	inactive
Agps	DRSC05984	71776	51712	2085	4092	inactive
Mbs	DRSC09414	2.14e5		5328		inactive
Mbs	DRSC10525	79069	74021	2837	3189	inactive
Mbs	DRSC10553	1.96e5		8709	5379	inactive
Acp53C14a	DRSC07224	69267	31344	1845	2013	inactive
Dna2	DRSC18254	60250	79944	1429	1782	inactive
CG17883	DRSC07838	57509	58744	2364	3517	inactive
CG12963	DRSC05555	1.24e5	2.94e5	8992	11370	inactive
CG12963	DRSC06265	82811	39252	1917	1681	inactive
CG18278 + CG30059	DRSC05418	1.95e5	3.56e5	5963	15174	inactive
Spx	DRSC18720	41781	1.16e5	2144	6760	inactive
lncRNA:CR42859	DRSC00103	5.55e5	3.00e5	25888	11825	inactive
Try29F	DRSC03466	96979	53189	2838	5328	inactive
Tim17a1	DRSC14184	1.22e5	2.00e5	4012	5591	inactive
Ptip	DRSC10660	99980		1450	2400	inactive
Ptip	DRSC11048	45283		3302	1672	active
Bx	DRSC19350	60262	55997	1908	2897	inactive
Bx	DRSC19624	96508	2.24e5	3670	9612	inactive
Gdi	DRSC03330	1.07e5	80877	4054	3595	inactive
CG33116	DRSC02045	41388	38002	2131	1978	inactive
Pop4	DRSC10955	38752	51069	4490	3513	inactive
Rab18	DRSC18702	81302	77680	1968	2348	inactive
RFeSP	DRSC00702	1.59e5	1.03e5	3177	2370	inactive
Chmp1	DRSC10401	86803	51127	3494	1733	inactive

A stretch from the list above, for reference:
Target gene	amplicon	firefly Hh reporter signal, replicate 1	firefly Hh reporter signal, replicate 2	Renilla reference signal, replicate 1	Renilla reference signal, replicate 2	Call
CG4213	DRSC00641	1.57e5	1.00e5	4048	2173	inactive
sm	DRSC05795	1.54e5	2.74e5	4321	11144	inactive
sm	DRSC07686	89245	47995	4251	2380	inactive
